In PMC12456409:
No constants are given. Whether binding was seen depends on the method and setting. Binding seen in cells or lysates may run through a third protein. Some results given as binding are weak or reduced against the parent protein; the word gives no strength.

Chains of the proteins cited; added tags and fusions are not shown. Residues count along the entry.
UniProt P16070, residues 21-742: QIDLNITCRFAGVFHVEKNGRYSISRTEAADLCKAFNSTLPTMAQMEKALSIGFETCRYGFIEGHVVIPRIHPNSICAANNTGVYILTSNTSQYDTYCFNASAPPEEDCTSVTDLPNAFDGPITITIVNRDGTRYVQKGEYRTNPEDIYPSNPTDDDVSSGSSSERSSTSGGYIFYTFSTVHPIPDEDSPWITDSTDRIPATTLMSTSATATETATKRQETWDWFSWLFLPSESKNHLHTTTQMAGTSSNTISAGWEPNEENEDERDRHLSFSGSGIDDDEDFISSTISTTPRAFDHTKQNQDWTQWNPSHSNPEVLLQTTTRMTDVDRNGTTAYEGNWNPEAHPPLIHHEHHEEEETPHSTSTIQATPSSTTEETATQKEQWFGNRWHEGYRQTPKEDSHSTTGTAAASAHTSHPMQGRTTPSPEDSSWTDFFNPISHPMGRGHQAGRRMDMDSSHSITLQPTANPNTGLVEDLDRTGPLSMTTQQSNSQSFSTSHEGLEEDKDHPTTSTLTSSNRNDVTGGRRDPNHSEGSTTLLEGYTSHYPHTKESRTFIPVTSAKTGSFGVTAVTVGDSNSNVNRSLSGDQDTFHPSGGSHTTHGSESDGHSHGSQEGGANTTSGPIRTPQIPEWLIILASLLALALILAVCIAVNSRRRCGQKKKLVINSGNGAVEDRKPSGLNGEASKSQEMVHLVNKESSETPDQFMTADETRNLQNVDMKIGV
UniProt P61586: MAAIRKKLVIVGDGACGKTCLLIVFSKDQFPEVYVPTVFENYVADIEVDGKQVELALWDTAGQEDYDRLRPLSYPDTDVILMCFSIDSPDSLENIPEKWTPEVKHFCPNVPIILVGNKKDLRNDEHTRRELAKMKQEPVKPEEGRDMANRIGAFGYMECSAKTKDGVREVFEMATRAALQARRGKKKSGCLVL
UniProt Q15836: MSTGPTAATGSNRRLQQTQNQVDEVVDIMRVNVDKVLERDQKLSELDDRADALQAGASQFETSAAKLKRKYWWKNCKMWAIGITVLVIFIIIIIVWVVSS

What was measured:
[1] = molecular target: Galectin-9 (human (endogenous in moDCs)) (UniProt O00182); assay: co-IP; IP with a galectin-9-specific antibody or isotype control from whole-cell lysates of day 7 matured moDCs; blots for galectin-9, Vamp-3 and CD44
[2] = molecular target: CD44 (human (endogenous in moDCs)) (UniProt P16070); assay: proximity ligation; Duolink In Situ PLA Orange on PFA-fixed, LPS-matured moDCs on coverslips; endogenous proteins, isotypes as negative control; NT or LGALS9 siRNA cells, with or without 5 ug/ml RhoA activator II for 3 h

Row | binding [1] | binding [2] | Substance
1 | binds | – | CD44 (from UniProt P16070 21-742) (receptor)
2 | – | binds | RhoA (from UniProt P61586 1-193)
3 | binds | – | Vamp-3 (from UniProt Q15836 1-100)
